# In article PMC7819943, “Rice protein-binding microarrays: a tool to detect cis-acting elements near promoter regions in rice”:
# Chains of the proteins cited; added tags and fusions are not shown.
# UniProt Q0JBA9, entry or part of it: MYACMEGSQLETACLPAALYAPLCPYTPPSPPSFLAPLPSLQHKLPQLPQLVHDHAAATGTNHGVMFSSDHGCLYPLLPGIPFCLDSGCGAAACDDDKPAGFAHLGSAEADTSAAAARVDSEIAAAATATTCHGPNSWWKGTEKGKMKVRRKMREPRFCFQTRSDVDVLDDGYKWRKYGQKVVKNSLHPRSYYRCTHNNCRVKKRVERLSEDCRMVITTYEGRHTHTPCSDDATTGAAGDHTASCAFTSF
# The list shows a part of the results.
# Biological target: OsWRKY34 (Oryza sativa, UniProt Q0JBA9 1-250)
# Assay: protein-binding microarray (RPBM); PBS, 2% BSA, 51.3 ng/ul salmon testes DNA, 50 uM zinc acetate, 200 nM TF, 25 C, 1 h; high values mean tight binding
# Conditions: protein: recombinant; tags: N-terminal polyhistidine and DsRed monomer fusion (pET32a); label: CyDye5-dUTP incorporated in the synthesized complementary strand; 3' TTTTT single-stranded linker to array surface; dsDNA, one strand shown
# How it was run: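 Transcription factors were made in E. coli BL21-CodonPlus as N-terminal fusions to a polyhistidine tag and DsRed, then purified on Ni–NTA. After primer extension with Cy5-dUTP and blocking with 2% BSA, a custom Agilent array was exposed for 1 h at 25 °C to 200 nM protein in PBS, 2% BSA, salmon testes DNA and 50 µM zinc acetate. Washed arrays were scanned on an Axon 4000B, and the binding signal is per-feature fluorescence intensity in arbitrary units.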
row,Sequence,binding signal
1,ATCCTGCATCATCTTCCACGGCTCTCCAACCCCAAAAAATCGGAGTCACCTAGTGCAG,8460 fluorescence intensity (a.u.)
2,GACCAAGGCAGAGAATTTGCCACTGCTTTTTGCTATACCTCGGAGTCACCTAGTGCAG,8210 fluorescence intensity (a.u.)
3,TCTATCTCTCGTCAACGCTTGCTCGCCATCGCATCATGTACGGAGTCACCTAGTGCAG,10500 fluorescence intensity (a.u.)
4,ATTAGTACGCAAAGCTGCTCTAAGGCCTGGTTCTTTTTCTCGGAGTCACCTAGTGCAG,9430 fluorescence intensity (a.u.)
5,GACTGCATGTCTGCATCTGTGTGCCCTCATCGACGTTCTCCGGAGTCACCTAGTGCAG,9860 fluorescence intensity (a.u.)
6,AGCTCCAAATGATTTTTTTCTCCTAAACTGTTTGTCTAATCGGAGTCACCTAGTGCAG,9720 fluorescence intensity (a.u.)
7,GTCTCATCTGCATGCTGAGTGTTTATAGTTTATCCGGAACCGGAGTCACCTAGTGCAG,9300 fluorescence intensity (a.u.)
8,ACGTGCCTACTTGACTTGCTGACCTACATTGCCGACTGCCCGGAGTCACCTAGTGCAG,8300 fluorescence intensity (a.u.)
9,GTCACAATTGGGCCTCCATAAGCCCATCTGAGCCCACACACGGAGTCACCTAGTGCAG,8160 fluorescence intensity (a.u.)
10,ACCACTCTACTAATTCCTTTTGGTTAACGATTCGAAGCTCCGGAGTCACCTAGTGCAG,8650 fluorescence intensity (a.u.)
11,TCCCGTATTTTTCTTACACTTTTTTTTTAAAAAAAAATACCGGAGTCACCTAGTGCAG,9140 fluorescence intensity (a.u.)
12,TACTATGCTACCCTATCAAAATCTTGGTAGTACCCAAAGTCGGAGTCACCTAGTGCAG,8610 fluorescence intensity (a.u.)
13,AAAAGCAGGAGGATTGGTCTTGGGTGGGTGGTTGCCACTTCGGAGTCACCTAGTGCAG,9400 fluorescence intensity (a.u.)
14,AATTACGTGCTAATAGGCCGCCCCGTTTTCCGTACGCACTCGGAGTCACCTAGTGCAG,10300 fluorescence intensity (a.u.)
15,GAGCTCTCTGCTCTTCCATTGCTAGTTTTGCTTCATTTCCCGGAGTCACCTAGTGCAG,8260 fluorescence intensity (a.u.)
16,GAGCCATCCCGTCCCATCACGACGCATTGCTGCCGCGGCCCGGAGTCACCTAGTGCAG,9640 fluorescence intensity (a.u.)
17,TATCCACTTCGCTCTCTTCTCTGCAGCGCTGCATCCTACTCGGAGTCACCTAGTGCAG,10800 fluorescence intensity (a.u.)
18,ATAGATGACGCTGTTGATTTTTTTCTCACATGTTTGACCACGGAGTCACCTAGTGCAG,10400 fluorescence intensity (a.u.)
19,TTCTTTTTCTTTTGCTTTGGCCGGCGTTTCATCGCGCGGGCGGAGTCACCTAGTGCAG,9240 fluorescence intensity (a.u.)
20,TGCTTCACATCTCCGTCCAGTCCCTACCGTATACTACTATCGGAGTCACCTAGTGCAG,15100 fluorescence intensity (a.u.)
21,GGAGGAGAGAGGGGTGGGGTTTGTGGTGTCGTCGTCCATGCGGAGTCACCTAGTGCAG,11700 fluorescence intensity (a.u.)
22,ATGGTGGGCTGTGGGTGCATGGTTTTGCTGGTCGCACCCACGGAGTCACCTAGTGCAG,11100 fluorescence intensity (a.u.)
23,GCCTCGCCCAGATCACCGGCCGCTACTTCCTCTGCCGCAGCGGAGTCACCTAGTGCAG,10700 fluorescence intensity (a.u.)
24,TTGACTGGAGGTCTGTATAAGACATAAGTCCACTTGCATTCGGAGTCACCTAGTGCAG,9420 fluorescence intensity (a.u.)
25,ACTTATTCCCTGTACTGACCATCCCGTTCCGCATTCCCACCGGAGTCACCTAGTGCAG,11000 fluorescence intensity (a.u.)
26,CCCGCTGCAACCGCTACCACCTGCATCTACTGCTGCTGACCGGAGTCACCTAGTGCAG,8930 fluorescence intensity (a.u.)
27,TCAAAATGTTAAATGGTATATTACTACTCCCTCCGTACTCCGGAGTCACCTAGTGCAG,8150 fluorescence intensity (a.u.)

row,Sequence,binding signal
1,CTCTCTCTCTCCACACGCGCAGCTTTTTGCTTCTGCAATTCGGAGTCACCTAGTGCAG,9780 fluorescence intensity (a.u.)
2,TACCATTTCTACGATGTATCTTCCTATTTTTCCATCACATCGGAGTCACCTAGTGCAG,8890 fluorescence intensity (a.u.)
3,CAAACTTCTAATTTTTCCGTCACATCAAATGTTTGGATATCGGAGTCACCTAGTGCAG,34900 fluorescence intensity (a.u.)
4,ATGCTTGATTCGTCGGGATCGACAAATTTGTACCGTGTATCGGAGTCACCTAGTGCAG,8130 fluorescence intensity (a.u.)
5,TGTTCTCATGTTCTTTCCATATTCGAGTCTCCGTAATCCCCGGAGTCACCTAGTGCAG,9750 fluorescence intensity (a.u.)
6,TCTGACTCTCCAACCTCCCGTCCTTGGTCCTTACACGCAACGGAGTCACCTAGTGCAG,8200 fluorescence intensity (a.u.)
7,GTGATTAAAACGGTTTCCGGTTAGCTGCGTGCTCTATTTCCGGAGTCACCTAGTGCAG,9060 fluorescence intensity (a.u.)
8,ACCTTGTAGTCAAGGAGCATCTGGGGCATCTTCTTCATCACGGAGTCACCTAGTGCAG,9010 fluorescence intensity (a.u.)
9,TCACATATTTTATCCATTTAAGTTTAATTTTTCTATGGTTCGGAGTCACCTAGTGCAG,9370 fluorescence intensity (a.u.)
10,GTACAACCGATTGGGCTCTCAATTCTTCTTCACATGCTTCCGGAGTCACCTAGTGCAG,11000 fluorescence intensity (a.u.)
11,GGCTGGAGGAAGAGTGGGGTGGCGCGTCGCTGGTCCGCAACGGAGTCACCTAGTGCAG,8040 fluorescence intensity (a.u.)
12,GCTAGTATCCCTCGTGACAAGTGACACCTGTTTTTTATTACGGAGTCACCTAGTGCAG,8620 fluorescence intensity (a.u.)
13,CATCATCCACCCCGACCTCCGCCTCCGCCTCCGCCCGCCGCGGAGTCACCTAGTGCAG,9930 fluorescence intensity (a.u.)
14,CTCCGTTTTCTACGCGGATAGCTTGGGTTGGTAACCATGTCGGAGTCACCTAGTGCAG,10600 fluorescence intensity (a.u.)
15,ACCTCGCTCGCCCGCCCGCCCGCCTCCGCCTCCGCCAATGCGGAGTCACCTAGTGCAG,8810 fluorescence intensity (a.u.)
16,CTACCTTTTATTTTCACCGGAGTTAGATTTCCATAAAAAACGGAGTCACCTAGTGCAG,8810 fluorescence intensity (a.u.)
17,TTTAAACTTGATAATTTTTTACTAATATTTCCATCGTTTTCGGAGTCACCTAGTGCAG,10000 fluorescence intensity (a.u.)
18,TTATATCTCTCATTCGATTCTTGCGTTTTTCTGCGGCCAACGGAGTCACCTAGTGCAG,8180 fluorescence intensity (a.u.)
19,TTTTCACTCATCAGATTTTGTTTATTCGTACTGCGTCGCCCGGAGTCACCTAGTGCAG,8940 fluorescence intensity (a.u.)
20,CCCAAATCGATCCATTTTTTGCCTCACTTAATCTCTCGCTCGGAGTCACCTAGTGCAG,9030 fluorescence intensity (a.u.)
21,TTGGTGGTGAAGGGGAGGGCGCATGCGACGTGGAGGGTGTCGGAGTCACCTAGTGCAG,9120 fluorescence intensity (a.u.)
22,AATGTGTGTTTATTTTTATTATAATACTGTATTTGTCTTTCGGAGTCACCTAGTGCAG,11000 fluorescence intensity (a.u.)
23,GGCTGCCTCCTCTCCTCATCCCTGCACCTACACTCCAATACGGAGTCACCTAGTGCAG,8530 fluorescence intensity (a.u.)
24,CCCATACATTACCTGTTGCTTTTTTTATGGCCCTTCTTTTCGGAGTCACCTAGTGCAG,9710 fluorescence intensity (a.u.)
25,TGTGTTCCTTTTCCTCCCATTTGATTATTTCAATCTTACACGGAGTCACCTAGTGCAG,8180 fluorescence intensity (a.u.)
26,AAATAACGGTTCGGTTCACTTGTAATTTATCCCGTTGTTACGGAGTCACCTAGTGCAG,10500 fluorescence intensity (a.u.)
27,CTCTCACACACACACACCGATTAACTTGCTGGATTCCATACGGAGTCACCTAGTGCAG,10400 fluorescence intensity (a.u.)

# Reprinted at random: four entries already listed
row,Sequence,binding signal
16,CTACCTTTTATTTTCACCGGAGTTAGATTTCCATAAAAAACGGAGTCACCTAGTGCAG,8810 fluorescence intensity (a.u.)
21,TTGGTGGTGAAGGGGAGGGCGCATGCGACGTGGAGGGTGTCGGAGTCACCTAGTGCAG,9120 fluorescence intensity (a.u.)
15,ACCTCGCTCGCCCGCCCGCCCGCCTCCGCCTCCGCCAATGCGGAGTCACCTAGTGCAG,8810 fluorescence intensity (a.u.)
23,GGCTGCCTCCTCTCCTCATCCCTGCACCTACACTCCAATACGGAGTCACCTAGTGCAG,8530 fluorescence intensity (a.u.)
